From patent US20040228930A1, “Treatment for hemorrhagic shock” (priority 2002, published 2004) come the findings set out here.

A short description of the data set: Central hemodynamics (MAP, heart rate, shed blood volume) in sham and shocked mice. Type of data set: in vivo.

Turning to `[C-]#[O+]` [CO, carbon monoxide], the “MAP (Sham)” value (sham mice, CO 250 ppm inhaled) came to 68.9 ± 6.0 mmHg. For the same compound, for the setting “sham operated mice, CO 250 ppm”, the “effect on MAP compared to air controls” value was “did not alter” and the “effect on heart rate compared to air controls” value is on record as “did not alter”. The “volume of hemorrhaged blood shed to achieve a MAP of 25 mmHg, CO-treated vs air-treated” value (shocked mice, CO 250 ppm) was “the same”. Also, the “Shed Blood (Shock)” value (shocked mice, blood volume shed to achieve MAP of 25 mmHg, CO 250 ppm inhaled) was 0.69 ± 0.6 mL.
